Assay results published in PubChem BioAssay AID590 (National Center for Advancing Translational Sciences (NCATS), 2007).
The campaign covered roughly 59,000 compounds. About 6,500 (11%) were called active. This list was built around the results that the source calls inconclusive (neither active nor inactive); the mix of calls is not that of the screen. Cut-off read from the data, not from the text of the source: active = max dye-equivalent concentration above about 10 nM; inconclusive = mostly about 1.1 nM to 9.6 nM; inactive = weaker than that.

Assay: qHTS Assay for Spectroscopic Profiling in A350 Spectral Region
Conditions: Compound autofluorescence, 340/450 nm, Alexa 350 dye-equivalents; active compounds read high

Row | Compound | max dye-equivalent concentration
1 | COC(=O)c1cc2ccccc2c(=O)s1 | inconclusive: 1.7 nM
2 | COc1ccc(NC(=O)CN2CCN(c3ccc(Cl)cc3)CC2)c(OC)c1 | inconclusive: 4.7 nM
3 | c1coc(-c2nnc3sc(C4CCCCC4)nn23)c1 | inactive
4 | Cc1ccc2c(c1)c(C)c(C)n2CC(O)Cn1nnc2ccccc21 (configuration not stated) | inactive
5 | COC(=O)CCN1CCC(C(N)=O)CC1 | inactive
6 | N[C@@H](Cc1ccc(O)c(O)c1)C(=O)O | inconclusive: 7.6 nM
7 | c1cncc(-c2nc(N3CCCCCC3)c3ccccc3n2)c1 | inactive
8 | CSc1ccc(C2C(C#N)=C(N)Oc3c2ccc(=O)c2c(C)oc(C)c32)cc1 (configuration not stated) | inactive
9 | CN(C)/C=C1/Nc2ccccc2C1=O | inconclusive: 1.1 nM
10 | O=C(NC1CCCC1)C1c2ccccc2C(=O)N1C1CCCCC1 (configuration not stated) | inconclusive: 1.1 nM
11 | COC(=O)c1[nH]c2ccc(C)cc2c1NC(=O)C1=COCCO1 | inconclusive: 7.4 nM
12 | COc1ccc2[nH]cc(C(=O)CN3CCCC(C)C3)c2c1 (configuration not stated) | inactive
13 | CN(C)c1ccc(CNC23CN4CN(CN(C4)C2)C3)cc1 | inactive
14 | CN1CCN2c3ccccc3Cc3ccccc3C2C1 (configuration not stated) | active: 15 nM
15 | COCCn1c(SCc2ccc(C(=O)OC)o2)nc2cc(Cl)ccc2c1=O | inactive
16 | CCCCCOC(=O)CSc1nnc(-c2ccccc2)c(=O)[nH]1 | inactive
17 | CCOC(=O)C1Cc2c([nH]c3ccccc23)C(C)N1 (configuration not stated) | inconclusive: 1.3 nM
18 | O=C(NCc1cccs1)C1CCCN(c2nc3ccccc3o2)C1 (configuration not stated) | inconclusive: 1.3 nM
19 | COc1ccc(-c2cc(=O)c3ccccc3s2)cc1 | active: 32 nM
20 | c1ccc(-c2nc3cc(Oc4ccc5oc(-c6ccccn6)nc5c4)ccc3o2)nc1 | inconclusive: 4.5 nM
21 | COCCn1nnnc1C(c1ccc(OC)c(OC)c1)N1CCN(c2nc3ccccc3s2)CC1 (configuration not stated) | inconclusive: 1.2 nM

Row | Compound | max dye-equivalent concentration
22 | Cc1nnc(SCC(=O)NC2CC2)n1CCc1ccccc1 | inconclusive: 3.1 nM
23 | CCS(=O)(=O)Nc1c(C(=O)O)[nH]c2ccccc12 | inconclusive: 2.4 nM
24 | CCn1nnc(C(=O)O)c1C(=O)O | inconclusive: 2.3 nM
25 | Cc1cc(OCC(=O)O)c2ccccc2n1 | inconclusive: 1.9 nM
26 | Cn1c(COc2ccc3ccccc3c2)nnc1SCC(N)=O | inconclusive: 1.7 nM
27 | CCCS(=O)(=O)C(=C1Nc2ccccc2N1)S(=O)(=O)CCC | inconclusive: 2.4 nM
28 | COc1ccccc1Oc1c(C)oc2c(CN3CCN(C)CC3)c(O)ccc2c1=O | active: 1600 nM
29 | Cc1noc(C)c1-c1ccc2ncnc(NCc3cccnc3)c2c1 | inactive
30 | Cc1cc2nc3[nH]c4c(Cl)cc(Cl)cc4c3nc2cc1C | active: 19 nM
31 | COc1ncnc2c1oc1nc(C(C)C)c3c(c12)CC(C)(C)OC3 | inconclusive: 1.1 nM
32 | COc1ccc(NC(C)=O)cc1NC(=O)CSc1nnc(-c2ccc(F)cc2)n1N | inconclusive: 1.1 nM
33 | COc1ccc2nc(C)cc(Nc3ccc(N4CCOCC4)cc3)c2c1 | inactive
34 | COc1ccc2[nH]cc(CCNc3cc(-c4ccccc4OC)ncn3)c2c1 | inactive
35 | C=CCNc1nc(-c2sc(NC(=O)CC)nc2C)cs1 | inconclusive: 2.5 nM
36 | COc1ccc(C2CC(=O)N3CN(Cc4ccco4)CSC3=C2C#N)cc1 (configuration not stated) | inconclusive: 2 nM
37 | O=C(Cn1cc(C(=O)c2cccs2)c2ccccc21)NCc1cccs1 | active: 25 nM
38 | Cn1c(=O)c2c(nc(CN3CCN(c4ccccc4)CC3)n2Cc2ccccc2Cl)n(C)c1=O | inactive
39 | O=C(CSc1ccc(-c2nc3ccccc3[nH]2)cn1)N1CCN(C(=O)c2ccco2)CC1 | inconclusive: 1.9 nM
40 | CCOC(=O)c1ccc2[nH]cc(C(C)=O)c(=O)c2c1 | active: 25 nM
41 | Brc1c(CSc2nnc(-c3ccco3)o2)nc2ccccn12 | inactive
42 | CNc1nc(NC)nc(-n2c(C(F)(F)F)nc3ccccc32)n1 | inconclusive: 1.4 nM

Row | Compound | max dye-equivalent concentration
43 | NS(=O)(=O)c1cc(C(=O)O)c(O)c2ccccc12 | inconclusive: 3.8 nM
44 | CCn1c(SCC(=O)NC2CCCCC2C)nnc1-c1ccc(OC)cc1 (configuration not stated) | inconclusive: 6.5 nM
45 | CN(C)CC[C@@H](c1ccccc1)c1ccccn1 | inconclusive: 1.8 nM
46 | CC(=O)Nc1ccc(OC[C@@H](O)CNC(C)C)cc1 | inactive
47 | CCOC(=O)CSc1nc(N)c2c3c(sc2n1)CCCC3 | inconclusive: 2.6 nM
48 | Cc1cc2cc(CNC(=O)c3cc4ccccc4o3)ccc2n1C | inconclusive: 1.2 nM
49 | COc1ccc(-c2ccc(SCC(=O)N3CCOCC3)nn2)cc1 | inconclusive: 2.1 nM
50 | Cc1nc(NC2=NCN(CCCN3CCOCC3)CN2)nc2c(C)cccc12 | inconclusive: 2.5 nM
51 | N#Cc1c(NCCCO)nc(-c2ccccc2)c2c1CCCC2 | active: 290 nM
52 | CC(C)(C)c1[nH]nc2c1C(Cc1ccccc1)C(C#N)=C(N)O2 (configuration not stated) | inconclusive: 3.1 nM
53 | Cn1c(CN2CCOCC2)nc2cc(NC(=O)c3ccc(Cl)cc3)ccc21 | inconclusive: 1.5 nM
54 | CCOC(=O)C1CCCN(C(=O)c2ccc3c(c2)OCO3)C1 (configuration not stated) | inactive
55 | O=C1C(=O)c2ccccc2C(O)=C1C(C1=C(O)c2ccccc2C(=O)C1=O)c1ccc(Cl)cc1 | inactive
56 | Cc1c(C(=O)Nc2ccc3oc(-c4cccnc4)nc3c2)oc2ccccc12 | active: 35 nM
57 | CC(=O)OC(C(=O)n1nc(C)cc1C)c1ccccc1 (configuration not stated) | inconclusive: 1.9 nM
58 | CCCCNC(=O)CCC(=O)Nc1ncc(-c2ccc(C)cc2)n1C | inconclusive: 1.9 nM
59 | COc1ccc2[nH]c(=O)c(CN(CC3CCCO3)C(=O)Nc3ccc(F)cc3)cc2c1 (configuration not stated) | active: 120 nM
60 | CC(C)COc1ccc(-c2nnc(-c3ccncc3)o2)cc1 | inactive
61 | O=C(CC1(O)C(=O)Nc2ccc(Br)cc21)c1ccc2c(c1)OCO2 (configuration not stated) | inactive
62 | CCN1C(=O)N(C)C2(c3ccccc3)N(C)C(=O)N(C)C12c1ccccc1 (configuration not stated) | inconclusive: 1.9 nM

Gathered by group, the compounds so far with a thiophene ring, fused or not
Row | Compound | max dye-equivalent concentration
18 | O=C(NCc1cccs1)C1CCCN(c2nc3ccccc3o2)C1 (configuration not stated) | inconclusive: 1.3 nM
37 | O=C(Cn1cc(C(=O)c2cccs2)c2ccccc21)NCc1cccs1 | active: 25 nM
47 | CCOC(=O)CSc1nc(N)c2c3c(sc2n1)CCCC3 | inconclusive: 2.6 nM
